Data taken from the supplement of paper PMC12889115.
The other results are listed elsewhere or left out. These are raw signals, not scaled to a control.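 Primary screen: polymyxin B was added at a level permeabilizing Salmonella outer membranes while sparing inner membranes. DMSO wells, both with and without polymyxin B, established maximum growth. Plate-to-plate variation meant each plate was ranked on its own, and the lowest-OD600 compounds were selected as hits.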

Test system: Salmonella enterica serovar Typhimurium SL1344
Assay: bacterial growth OD600 after 18 h with compound and polymyxin B; higher = more bacterial growth (less inhibition)
Conditions: 50 µM, Mueller-Hinton broth

Compound | bacterial growth OD600 (polymyxin B 1 µg/mL) | bacterial growth OD600 (polymyxin B 0.75 µg/mL)
CCN(C)c1ccc(C(=O)N2CCC(Cn3cccn3)CC2)cn1 | 1.07 | 
Cc1ccccc1C1(CC(=O)N2CCCN(c3ncccn3)CC2)CC(=O)N(Cc2ccccc2)C1=O (stereo unspecified) |  | 0.688
COCCN(C)Cc1cn(-c2ccc(F)cc2)nc1-c1ccccc1Cl | 0.839 | 
CC(C)Oc1cccc(C(=O)C2CCCN(C(=O)NC(C)(C)C)C2)c1 (stereo unspecified) | 0.693 | 
O=C(c1ccc(-n2cccn2)cc1)N1CCCC(Nc2ccc3c(c2)OCCO3)C1 (stereo unspecified) | 0.825 | 
O=C(c1ccc(F)cc1)N1CCc2onc(-c3ccccc3F)c2C1 |  | -0.002
CN(Cc1ccc2nccnc2c1)C(=O)CCN1Cc2ccccc2OC(c2ccccc2)C1 (stereo unspecified) |  | 0.985
COc1ccc(-c2noc(CN3CCOc4ccc(Cl)cc4C3)n2)c(OC)c1OC | 0.882 | 
COc1ccc(F)c(CN2CCCC(O)(CN3CCC4(CC3)OCCO4)C2=O)c1 (stereo unspecified) | 0.927 | 
COCc1ccc(C(=O)N2CCCC(CCc3ccc(F)c(F)c3)C2)o1 (stereo unspecified) |  | 0.001
COc1cccc(-c2ccc(NC(=O)C3CCCN(C(C)C)C3)cc2)c1 (stereo unspecified) | 0.792 | 
COc1ncccc1C(=O)N1CCc2[nH]nc(-c3cccc(F)c3)c2C1 |  | 0.761
C=CCOc1cccc(C(=O)N2CCCC(CO)(Cc3ccc(F)cc3F)C2)c1 (stereo unspecified) | 0.012 | 
Fc1ccc(C2CCN(Cc3ccc4nccnc4c3)c3ccccc3S2)cc1F (stereo unspecified) |  | 0.032
CNc1ccc(C(=O)NCCC2CCCCN2C)cn1 (stereo unspecified) | 0.937 | 
COc1ccc(F)c(CN2CCCC3(CCN(CCC(C)C)C3)C2=O)c1 (stereo unspecified) | 0.578 | 
CCN(Cc1ccccc1)C(=O)c1oc2ccc(C)cc2c1C | 0.21 | 
CCOC(=O)C1(CCCc2ccccc2)CCN(Cc2cccnc2)CC1 |  | 0.581
COCC(=O)Nc1cc(C(=O)NC(c2ccccn2)C(F)(F)F)c2c(c1)nc(C1CCC1)n2C (stereo unspecified) |  | 0.846
O=C(CCc1[nH]nc2c1CCCC2)N1CCCC(Nc2ccc3c(c2)OCCO3)C1 (stereo unspecified) | 0.791 | 
CCCc1cc(C(=O)NCC2Cc3cc(-c4cccnc4)cc(F)c3O2)n(C)n1 (stereo unspecified) |  | 0.816

In a second layout: results already given.
Compound	bacterial growth OD600 (polymyxin B 1 µg/mL)	bacterial growth OD600 (polymyxin B 0.75 µg/mL)
Cc1ccccc1C1(CC(=O)N2CCCN(c3ncccn3)CC2)CC(=O)N(Cc2ccccc2)C1=O (stereo unspecified)		0.688
COc1cccc(-c2ccc(NC(=O)C3CCCN(C(C)C)C3)cc2)c1 (stereo unspecified)	0.792	
